The source of these data is paper PMC5300155, “Biochemical and biophysical investigations of the interaction between human glucokinase and pro-apoptotic BAD” (PLoS ONE, 2017).

By UniProt entry, the sequences of proteins in these tests, tags left out. Where a name states a change or a piece, a line headed by the entry shows the natural chain unless it says otherwise.
UniProt Q92934: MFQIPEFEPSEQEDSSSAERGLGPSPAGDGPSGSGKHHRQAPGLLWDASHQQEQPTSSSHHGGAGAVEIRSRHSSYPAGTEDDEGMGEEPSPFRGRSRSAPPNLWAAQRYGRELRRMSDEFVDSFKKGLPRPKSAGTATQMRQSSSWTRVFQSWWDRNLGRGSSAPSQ

No constants are given. Whether binding was seen depends on the method and setting.

This assay deals with T1, FITC-labeled 21-residue peptide containing the BH3 domain of BAD (human).
T1 sequence (peptide, FITC on the lysine at peptide position 18 (K(FITC))): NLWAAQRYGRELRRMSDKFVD
Briefly: fluorescence polarisation; high concentrations of BAD-GST added to the f-BH3 peptide; conditions not given; both purified. (In general: Fluorescence polarisation rises when a labelled molecule tumbles more slowly, as on binding a larger partner.)

For the substance “recombinant human BAD-GST fusion polypeptide (from UniProt Q92934)”, the binding entry is recorded as “no binding”.
